These are yes or no findings as the source states them, for the method shown. For part of these data: In cells and extracts the contact can be indirect. Some results given as binding are weak or reduced against the parent protein; the word gives no strength.
Tests used:
[1] = molecular target: HDAC1 (human (endogenous in HeLa)) (UniProt Q13547); assay: co-IP; extracts of HeLa cells transfected with human CHD5 cDNA; immunoprecipitated and immunoblotted with the indicated antisera
[2] = molecular target: MTA3 (mouse (endogenous in mouse brain)) (UniProt Q924K8); assay: co-IP; mouse brain nuclear extract diluted into CoIP Buffer II (100 mM NaCl, 20 mM Hepes pH 7.5, 1 mM EDTA, 10% glycerol, 0.1% NP40); antibodies not crosslinked to the protein A beads; immunoblot for CHD5
[3] = molecular target: RbAp46 (mouse (endogenous in mouse brain)) (UniProt Q60973); assay: as above
[4] = molecular target: MBD3 (mouse (endogenous in mouse brain)) (UniProt Q9Z2D8); assay: as above
[5] = molecular target: p66ß (mouse (endogenous in mouse brain)) (UniProt Q8VHR5); assay: co-IP; mouse brain nuclear extract in RIPA buffer; antibodies (anti-HDAC1, anti-HDAC2, anti-p66 Beta, CHD5 antiserum) crosslinked to protein A beads; immunoblot for CHD5, HDAC1 or HDAC2
[6] = molecular target: HDAC2 (mouse (endogenous in mouse brain)) (UniProt P70288); assay: as above
[7] = molecular target: CHD5 (mouse (endogenous in mouse brain)) (UniProt A2A8L1); assay: as above
[8] = molecular target: CHD5 (mouse (endogenous in mouse brain)) (UniProt A2A8L1); assay: SEC; mouse brain nuclear extract dialyzed against PBS, 0.2 mg loaded onto a Sephadex 200 column; fractions analysed by western blot
[9] = molecular target: HDAC2 (human (endogenous in HeLa)) (UniProt Q92769); assay: co-IP; extracts of HeLa cells transfected with human CHD5 cDNA; immunoprecipitated and immunoblotted with the indicated antisera

The chains behind the UniProt entries cited, without tags or fusion partners.
UniProt Q13547: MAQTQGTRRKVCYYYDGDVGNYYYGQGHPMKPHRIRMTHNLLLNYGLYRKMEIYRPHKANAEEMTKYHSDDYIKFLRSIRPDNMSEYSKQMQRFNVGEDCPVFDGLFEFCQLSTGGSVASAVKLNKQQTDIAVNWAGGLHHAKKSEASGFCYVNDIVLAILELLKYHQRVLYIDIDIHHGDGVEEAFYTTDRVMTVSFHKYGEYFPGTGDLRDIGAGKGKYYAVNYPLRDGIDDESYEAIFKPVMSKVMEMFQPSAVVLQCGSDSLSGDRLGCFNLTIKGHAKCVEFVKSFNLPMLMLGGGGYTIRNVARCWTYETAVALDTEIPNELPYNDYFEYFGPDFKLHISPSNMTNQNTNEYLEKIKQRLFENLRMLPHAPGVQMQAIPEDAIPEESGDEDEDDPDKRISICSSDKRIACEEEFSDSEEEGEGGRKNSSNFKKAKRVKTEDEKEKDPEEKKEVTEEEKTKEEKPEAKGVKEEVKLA
UniProt Q60973: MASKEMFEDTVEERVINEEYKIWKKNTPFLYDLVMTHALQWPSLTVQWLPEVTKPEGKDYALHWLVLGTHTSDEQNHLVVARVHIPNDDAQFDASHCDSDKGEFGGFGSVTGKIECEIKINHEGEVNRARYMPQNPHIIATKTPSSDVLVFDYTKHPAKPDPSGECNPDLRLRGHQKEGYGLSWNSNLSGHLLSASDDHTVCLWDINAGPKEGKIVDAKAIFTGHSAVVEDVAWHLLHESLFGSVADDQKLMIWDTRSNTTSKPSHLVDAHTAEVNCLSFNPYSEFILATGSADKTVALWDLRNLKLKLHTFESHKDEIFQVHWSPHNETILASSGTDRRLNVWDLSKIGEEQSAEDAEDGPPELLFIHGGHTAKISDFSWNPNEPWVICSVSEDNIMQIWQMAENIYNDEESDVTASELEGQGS
UniProt Q8VHR5: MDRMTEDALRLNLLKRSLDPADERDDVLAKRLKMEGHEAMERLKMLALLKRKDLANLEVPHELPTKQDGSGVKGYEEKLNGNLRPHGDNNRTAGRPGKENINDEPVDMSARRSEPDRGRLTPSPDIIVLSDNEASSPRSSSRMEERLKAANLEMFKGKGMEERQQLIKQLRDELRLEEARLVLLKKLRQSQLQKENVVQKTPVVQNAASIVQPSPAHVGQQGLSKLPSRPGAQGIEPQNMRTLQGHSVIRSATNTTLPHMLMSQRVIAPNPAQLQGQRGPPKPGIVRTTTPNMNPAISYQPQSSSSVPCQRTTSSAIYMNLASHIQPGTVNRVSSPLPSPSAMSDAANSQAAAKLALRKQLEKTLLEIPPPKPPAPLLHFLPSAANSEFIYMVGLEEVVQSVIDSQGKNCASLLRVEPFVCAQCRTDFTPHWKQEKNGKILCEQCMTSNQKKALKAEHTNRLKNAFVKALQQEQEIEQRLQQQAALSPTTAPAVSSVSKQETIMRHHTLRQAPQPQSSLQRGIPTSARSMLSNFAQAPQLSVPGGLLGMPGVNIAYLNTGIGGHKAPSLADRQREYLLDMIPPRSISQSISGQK
UniProt P70288: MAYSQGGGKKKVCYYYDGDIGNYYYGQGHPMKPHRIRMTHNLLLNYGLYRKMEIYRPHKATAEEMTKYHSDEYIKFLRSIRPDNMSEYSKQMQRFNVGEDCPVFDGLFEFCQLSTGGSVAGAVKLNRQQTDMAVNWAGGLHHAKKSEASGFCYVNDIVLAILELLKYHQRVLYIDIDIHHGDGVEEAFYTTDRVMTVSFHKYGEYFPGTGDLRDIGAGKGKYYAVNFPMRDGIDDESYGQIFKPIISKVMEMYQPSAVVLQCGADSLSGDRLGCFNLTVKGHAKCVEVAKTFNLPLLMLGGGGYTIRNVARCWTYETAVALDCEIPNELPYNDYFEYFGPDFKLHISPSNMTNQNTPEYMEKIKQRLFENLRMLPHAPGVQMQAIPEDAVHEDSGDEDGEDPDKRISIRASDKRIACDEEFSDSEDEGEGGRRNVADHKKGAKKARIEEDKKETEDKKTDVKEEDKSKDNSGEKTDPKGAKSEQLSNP
UniProt A2A8L1: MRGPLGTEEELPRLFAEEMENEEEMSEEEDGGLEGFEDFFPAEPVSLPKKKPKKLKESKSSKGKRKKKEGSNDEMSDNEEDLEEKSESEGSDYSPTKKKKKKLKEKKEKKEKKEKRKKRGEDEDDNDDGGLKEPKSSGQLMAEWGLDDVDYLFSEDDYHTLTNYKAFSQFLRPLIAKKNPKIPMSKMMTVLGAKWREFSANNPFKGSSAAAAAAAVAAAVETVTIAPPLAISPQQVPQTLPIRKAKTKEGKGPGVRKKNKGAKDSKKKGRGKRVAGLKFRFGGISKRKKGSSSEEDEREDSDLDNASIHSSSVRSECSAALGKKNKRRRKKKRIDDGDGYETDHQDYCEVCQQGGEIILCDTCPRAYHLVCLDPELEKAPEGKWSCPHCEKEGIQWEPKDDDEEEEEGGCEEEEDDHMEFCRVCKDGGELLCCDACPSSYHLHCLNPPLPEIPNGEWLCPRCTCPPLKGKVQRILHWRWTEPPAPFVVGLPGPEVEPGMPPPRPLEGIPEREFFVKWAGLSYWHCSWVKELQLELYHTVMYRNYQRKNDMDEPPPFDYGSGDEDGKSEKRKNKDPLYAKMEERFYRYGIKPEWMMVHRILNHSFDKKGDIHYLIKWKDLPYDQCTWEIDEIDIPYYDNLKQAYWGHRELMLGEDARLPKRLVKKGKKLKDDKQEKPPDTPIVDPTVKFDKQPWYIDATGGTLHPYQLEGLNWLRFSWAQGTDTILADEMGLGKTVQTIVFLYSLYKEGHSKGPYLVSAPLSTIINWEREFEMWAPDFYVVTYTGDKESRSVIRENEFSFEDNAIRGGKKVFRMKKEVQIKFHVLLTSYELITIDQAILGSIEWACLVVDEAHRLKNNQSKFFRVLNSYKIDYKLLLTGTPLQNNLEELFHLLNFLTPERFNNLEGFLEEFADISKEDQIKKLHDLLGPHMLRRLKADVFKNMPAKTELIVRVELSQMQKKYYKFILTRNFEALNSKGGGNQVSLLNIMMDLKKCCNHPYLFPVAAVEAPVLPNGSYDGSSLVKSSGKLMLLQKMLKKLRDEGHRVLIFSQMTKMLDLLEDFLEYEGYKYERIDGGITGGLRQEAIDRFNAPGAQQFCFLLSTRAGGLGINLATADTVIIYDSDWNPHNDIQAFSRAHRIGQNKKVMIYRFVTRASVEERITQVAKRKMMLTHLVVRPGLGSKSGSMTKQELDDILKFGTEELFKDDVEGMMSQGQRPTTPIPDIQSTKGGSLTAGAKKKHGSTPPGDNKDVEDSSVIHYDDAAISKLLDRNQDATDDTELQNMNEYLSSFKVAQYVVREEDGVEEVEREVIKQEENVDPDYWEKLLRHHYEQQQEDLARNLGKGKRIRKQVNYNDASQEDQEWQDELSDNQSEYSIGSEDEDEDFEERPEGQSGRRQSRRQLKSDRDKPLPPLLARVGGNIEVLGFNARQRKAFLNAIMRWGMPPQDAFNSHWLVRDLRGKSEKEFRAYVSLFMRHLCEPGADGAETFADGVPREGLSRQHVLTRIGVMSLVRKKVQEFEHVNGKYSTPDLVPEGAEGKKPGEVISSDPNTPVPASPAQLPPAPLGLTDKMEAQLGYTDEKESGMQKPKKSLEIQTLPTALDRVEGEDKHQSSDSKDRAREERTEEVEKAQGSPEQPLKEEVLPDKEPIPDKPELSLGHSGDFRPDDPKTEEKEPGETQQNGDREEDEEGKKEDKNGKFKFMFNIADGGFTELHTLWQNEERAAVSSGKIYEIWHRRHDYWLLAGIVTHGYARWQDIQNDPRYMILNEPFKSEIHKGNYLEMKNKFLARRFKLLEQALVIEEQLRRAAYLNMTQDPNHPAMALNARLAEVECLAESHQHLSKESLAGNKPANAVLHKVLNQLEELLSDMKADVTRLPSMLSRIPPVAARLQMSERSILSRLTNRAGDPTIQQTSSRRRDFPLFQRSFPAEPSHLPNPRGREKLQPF
UniProt Q92769: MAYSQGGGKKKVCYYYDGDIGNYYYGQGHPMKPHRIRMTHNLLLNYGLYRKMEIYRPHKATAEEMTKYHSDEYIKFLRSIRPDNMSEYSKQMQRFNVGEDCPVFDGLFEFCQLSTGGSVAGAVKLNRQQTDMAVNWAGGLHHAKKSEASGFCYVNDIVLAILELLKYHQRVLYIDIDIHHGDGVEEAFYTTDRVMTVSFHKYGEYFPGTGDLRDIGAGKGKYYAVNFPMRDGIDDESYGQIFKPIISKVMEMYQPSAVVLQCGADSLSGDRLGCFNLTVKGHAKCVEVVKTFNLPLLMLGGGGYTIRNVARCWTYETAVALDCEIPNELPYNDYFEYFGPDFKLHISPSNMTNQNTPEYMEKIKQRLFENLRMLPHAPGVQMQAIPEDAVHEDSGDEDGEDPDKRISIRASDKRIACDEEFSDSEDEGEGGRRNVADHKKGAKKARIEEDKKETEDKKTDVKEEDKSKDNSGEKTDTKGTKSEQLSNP
UniProt Q14839: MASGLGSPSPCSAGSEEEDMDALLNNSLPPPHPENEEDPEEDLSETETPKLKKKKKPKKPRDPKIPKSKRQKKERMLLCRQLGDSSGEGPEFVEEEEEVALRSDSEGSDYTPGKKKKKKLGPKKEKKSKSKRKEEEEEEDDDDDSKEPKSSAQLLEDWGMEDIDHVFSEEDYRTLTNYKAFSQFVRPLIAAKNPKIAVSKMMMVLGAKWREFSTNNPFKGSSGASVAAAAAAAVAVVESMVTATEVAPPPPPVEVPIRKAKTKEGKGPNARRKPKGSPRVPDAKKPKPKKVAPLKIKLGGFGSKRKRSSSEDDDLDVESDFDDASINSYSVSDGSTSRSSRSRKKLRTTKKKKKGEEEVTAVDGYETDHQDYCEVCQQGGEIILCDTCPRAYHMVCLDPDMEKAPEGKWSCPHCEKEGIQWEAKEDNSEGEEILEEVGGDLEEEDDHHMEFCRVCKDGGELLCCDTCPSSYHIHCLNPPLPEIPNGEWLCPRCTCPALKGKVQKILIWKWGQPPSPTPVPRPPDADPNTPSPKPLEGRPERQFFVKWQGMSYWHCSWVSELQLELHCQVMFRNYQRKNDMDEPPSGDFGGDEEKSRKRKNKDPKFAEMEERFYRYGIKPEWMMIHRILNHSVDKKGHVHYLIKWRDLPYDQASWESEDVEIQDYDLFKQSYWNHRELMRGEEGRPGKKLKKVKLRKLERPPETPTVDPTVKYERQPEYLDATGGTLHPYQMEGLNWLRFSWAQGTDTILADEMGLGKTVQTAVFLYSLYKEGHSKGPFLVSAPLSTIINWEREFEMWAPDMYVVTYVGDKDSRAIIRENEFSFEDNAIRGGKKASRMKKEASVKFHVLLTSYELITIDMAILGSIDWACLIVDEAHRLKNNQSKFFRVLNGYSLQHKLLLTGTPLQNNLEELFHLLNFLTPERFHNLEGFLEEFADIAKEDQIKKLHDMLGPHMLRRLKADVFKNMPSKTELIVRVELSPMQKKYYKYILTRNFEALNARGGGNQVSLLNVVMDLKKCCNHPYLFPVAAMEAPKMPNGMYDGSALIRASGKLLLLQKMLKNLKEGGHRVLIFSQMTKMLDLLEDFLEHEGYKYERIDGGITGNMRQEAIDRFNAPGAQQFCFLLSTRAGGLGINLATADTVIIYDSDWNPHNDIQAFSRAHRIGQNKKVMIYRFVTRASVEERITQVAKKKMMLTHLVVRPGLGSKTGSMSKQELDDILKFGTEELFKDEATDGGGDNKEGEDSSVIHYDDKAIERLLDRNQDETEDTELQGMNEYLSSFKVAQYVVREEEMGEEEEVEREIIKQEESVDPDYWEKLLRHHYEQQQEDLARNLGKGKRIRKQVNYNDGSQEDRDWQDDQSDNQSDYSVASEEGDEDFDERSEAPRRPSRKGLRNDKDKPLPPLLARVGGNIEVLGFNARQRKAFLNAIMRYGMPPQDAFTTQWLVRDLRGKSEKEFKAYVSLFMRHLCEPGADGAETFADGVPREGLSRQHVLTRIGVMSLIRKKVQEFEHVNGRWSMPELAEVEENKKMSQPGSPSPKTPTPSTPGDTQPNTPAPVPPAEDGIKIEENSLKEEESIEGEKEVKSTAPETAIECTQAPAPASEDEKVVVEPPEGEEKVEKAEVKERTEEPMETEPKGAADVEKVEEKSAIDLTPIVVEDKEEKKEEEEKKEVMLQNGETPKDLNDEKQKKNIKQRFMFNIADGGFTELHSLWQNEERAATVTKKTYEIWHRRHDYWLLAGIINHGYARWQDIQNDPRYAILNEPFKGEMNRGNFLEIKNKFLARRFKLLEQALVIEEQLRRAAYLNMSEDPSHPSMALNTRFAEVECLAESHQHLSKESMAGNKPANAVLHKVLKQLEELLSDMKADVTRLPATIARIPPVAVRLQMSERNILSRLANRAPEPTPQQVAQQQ

binding [1]	binding [5]	binding [8]	other results	Substance
binds				CHD4 (from UniProt Q14839 1-1912)
	binds		binding [2]: binds; binding [3]: binds; binding [4]: binds weakly; binding [6]: binds	CHD5 (from UniProt A2A8L1 1-1946)
	binds	binds	binding [7]: binds	HDAC2 (from UniProt P70288 1-488)
binds			binding [9]: binds	human CHD5 (from UniProt Q8TDI0 1-1954)
		binds		p66ß (from UniProt Q8VHR5 1-594)

— publication PMC3172237
